Measured values: patent US20180360093A1, “NUTRITIONAL COMPOSITIONS AND INFANT FORMULAS TO PROMOTE MYELINATION IN THE BRAIN” (NESTEC S.A., priority 2015, published 2018)
At least one compound was matched to its structure with a doubt left.

Tested on: brain myelination
Assay: Cross-sectional correlation analysis (GLM) of formula nutrient composition versus brain myelination (MWF by mcDESPOT MRI)
Assay type: in vivo, human
Settings: children up to 5 years fed different infant formulas during infancy; voxel-wise correlations, p<0.05 corrected
Protocol: MRI brain scans of infants and children between 0 and 5 years were acquired using a white matter imaging technique. This technique provides a quantitative measure, the Myelin Water Fraction (MWF), which is a surrogate marker of myelin content. When mapped as a function of time across early childhood, myelination trajectories can be generated.
Infant formula composition: six infant formulas fed to infants participating in study were analyzed for their composition/level of myelin-relevant nutrients.
Infants included in this study were drawn from a larger longitudinal study of normal brain and behavioral development: the Brown university Assessment of Myelination and Behavior Across Maturation (BAMBAM). To focus on neurotypical development, children with known potential risk factors for learning, neurologic, or psychiatric disorders were specifically excluded during recruitment and enrollment. […]
Each infant was scanned using the mcDESPOT (multicomponent Driven Equilibrium Single Pulse Observation of T1 and T2) white matter imaging technique Deoni et al. (Magn. Reson. Med. 2008, 60:1372-1387), which provides a quantitative measure of the myelin water fraction (MWF) at each imaging point throughout the brain. […]

SMILES: CC/C=C\C/C=C\C/C=C\C/C=C\C/C=C\C/C=C\CCC(=O)O [DHA, docosahexaenoic acid]
- nutritional drivers for myelination (final general linear model): identified drivers
